# Data reported in the supplement of paper PMC12889115.
# The list shows a part of the results. These are raw signals, not scaled to a control.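 First-pass screen: polymyxin B was added at a level that permeabilizes the Salmonella outer membrane while sparing the inner membrane. DMSO wells, with and without polymyxin B, defined maximum growth. Because plates differed from one another, each plate's data were ranked separately and the compounds with the lowest OD600 were carried forward as hits.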
# Test system: Salmonella enterica serovar Typhimurium SL1344
# Assay: bacterial growth OD600 after 18 h with compound and polymyxin B; higher = more bacterial growth (less inhibition)
# Conditions: 50 µM, Mueller-Hinton broth
Structure (SMILES),bacterial growth OD600 (polymyxin B 1 µg/mL),bacterial growth OD600 (polymyxin B 0.75 µg/mL)
COc1ccc(CN2CCC(n3nccc3NC(=O)C(OC)c3ccccc3)CC2)cc1 (stereo unspecified),1.02,
Fc1ccc(C2CCCCN2Cc2nc(CCc3ccccc3)no2)cc1 (stereo unspecified),0.841,
Cc1cc(C)n(Cc2cc(C(=O)N3CCCCC3c3cccnc3)n[nH]2)n1 (stereo unspecified),0.999,
COc1ccccc1C1CCCN1C(=O)Cn1nnnc1CN1CCOCC1 (stereo unspecified),0.721,
CC(=O)NCCC1CCCCN1Cc1nc(Cc2cccc(F)c2)no1 (stereo unspecified),,0.796
CN(C)C1(CNC(=O)c2coc(COc3cccc(F)c3F)n2)CCCCC1,,0.779
COC1CCCN(C(=O)c2coc(CN3CCN(Cc4ccccc4)CC3)n2)C1 (stereo unspecified),0.805,
CC(=O)N1CCC(N2CCCC(CCc3ccccc3C)C2)CC1 (stereo unspecified),,0.809
COc1ccc(CC2(CCC(=O)NC3CCCc4ccccc43)CCC(=O)N2)c2ccccc12 (stereo unspecified),,0.025
CSCCNC(=O)CCc1nnc(Cc2cccc(C(F)(F)F)c2)o1,0.852,
COc1ccccc1-c1cc2c(c(OC)c1)OCCN(Cc1cc(F)ccc1F)C2,,0.674
CC(=O)N1CCN(c2ncccc2CNCC2CC=CCC2)CC1 (stereo unspecified),,0.816
O=C(CCc1ccccc1)Nc1ccc(N2CCC(NCCc3cccnc3)CC2)cc1,,1.01
COc1cccc(CC(C2CCN(C(=O)/C=C/c3cccnc3)CC2)N(C)C(=O)c2ccsc2)c1 (stereo unspecified),,0.935
CCCCNC(=O)N1CCC(CCC(=O)N(C)Cc2ccccc2)CC1,0.993,
CCC(NC1CCN(c2nc(C)c3cc(C)c(C)cc3n2)CC1)c1ccncc1 (stereo unspecified),,1.04

Structure (SMILES),bacterial growth OD600 (polymyxin B 1 µg/mL),bacterial growth OD600 (polymyxin B 0.75 µg/mL)
CCC(O)C1CCN(C(=O)CC2c3ccccc3CCc3ccccc32)CC1 (stereo unspecified),,0.524
CCCn1ncc(CN(CCOC)CC2CCCN(C3Cc4ccccc4C3)C2)c1C (stereo unspecified),,0.746
CCOC(=O)N1CCN(Cc2nc(-c3cc(F)cc(F)c3)oc2C)CC1,0.782,
NC(=O)C1(N2CCCCC2)CCN(C(=O)CCC2(Cc3ccc(Cl)cc3)CCC(=O)N2)CC1 (stereo unspecified),,0.827
CCO[C@H]1[C@H](NC(=O)c2cccnc2)c2ccccc2C12CCN(C(=O)CCn1cnnn1)CC2,,0.788
COc1cccc(-c2n[nH]c3c2CN(Cc2cccc4c2OCO4)CC3)c1,,0.369
Cc1nc(CNC(=O)c2cc(Cn3ccnc3C(C)C)[nH]n2)sc1C,0.895,
COc1ccc(CCN2CC(NC(=O)C(C)(C)C)CC2=O)cc1 (stereo unspecified),0.487,
Cc1ccccc1-c1noc(-c2ccc(N(C)Cc3nccs3)nc2)n1,,0.597
OC1(Cc2cc(-c3ccccc3)no2)CCN(Cc2cc3ccccc3o2)CC1,0.89,
O=C(CCc1nnc(Cc2c[nH]c3ccccc23)o1)NC12CC3CC(CC(C3)C1)C2,0.501,
COC(=O)C1CCN(C(=O)c2cc(COc3ccc(F)cc3Cl)on2)CC1,1.02,
O=C(Cn1c(=O)oc2ccccc21)NCc1nc(NCCCc2ccccc2)c2ccccc2n1,,0.76
O=C(CCN1CCCC1=O)NCc1cccnc1-n1cnc2ccccc21,1.12,
CCN(CC)c1ccc(C(=O)N2CCCN(c3ncccn3)CC2)cn1,0.876,

# No new results follow: an excerpt of the list.
Structure (SMILES),bacterial growth OD600 (polymyxin B 1 µg/mL),bacterial growth OD600 (polymyxin B 0.75 µg/mL)
COc1cccc(-c2n[nH]c3c2CN(Cc2cccc4c2OCO4)CC3)c1,,0.369
Cc1nc(CNC(=O)c2cc(Cn3ccnc3C(C)C)[nH]n2)sc1C,0.895,
